Reference: US20260345795A1, “MULTIVALENCY FOR ENZYME INHIBITION” (Indiana University Research and Technology Corporation, priority 2022, published 2026)
The structures given here were assigned with low confidence; some may be wrong.

Sequences of proteins named here, by UniProt entry; tags and fusion partners are left off. Residues count along the entry.
UniProt P00747, 97-580 limits assumed: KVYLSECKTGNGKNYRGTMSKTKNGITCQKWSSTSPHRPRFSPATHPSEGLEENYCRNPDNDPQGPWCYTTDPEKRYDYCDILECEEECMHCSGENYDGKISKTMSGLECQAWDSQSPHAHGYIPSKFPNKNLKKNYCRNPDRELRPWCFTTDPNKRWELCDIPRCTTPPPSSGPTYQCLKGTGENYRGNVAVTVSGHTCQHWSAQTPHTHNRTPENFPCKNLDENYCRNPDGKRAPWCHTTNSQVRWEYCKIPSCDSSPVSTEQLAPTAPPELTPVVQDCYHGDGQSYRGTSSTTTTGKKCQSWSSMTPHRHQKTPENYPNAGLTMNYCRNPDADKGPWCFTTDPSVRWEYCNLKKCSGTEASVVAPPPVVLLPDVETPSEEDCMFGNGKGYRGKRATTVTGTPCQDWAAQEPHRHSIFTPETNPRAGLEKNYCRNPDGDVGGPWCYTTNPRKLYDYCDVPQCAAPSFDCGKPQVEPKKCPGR
UniProt P00747, 581-810 limits assumed: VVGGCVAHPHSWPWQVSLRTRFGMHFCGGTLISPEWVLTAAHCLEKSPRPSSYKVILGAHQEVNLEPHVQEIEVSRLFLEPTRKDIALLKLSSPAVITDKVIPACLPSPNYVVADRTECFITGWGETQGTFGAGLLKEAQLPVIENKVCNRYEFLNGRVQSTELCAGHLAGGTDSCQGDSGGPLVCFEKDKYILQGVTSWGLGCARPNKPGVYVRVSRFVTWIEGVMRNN

Molecular target: Human plasmin (Homo sapiens, UniProt P00747)
Experiment: Plasmin inhibition assay with chromogenic substrate S-2251, Dixon plot / Cornish-Bowden analysis
Type: biochemical
Conditions: role: inhibitor, S-2251 100-500 μM; for rp: relative potency = Ki^TXA/Ki^multi: TXA affinity molecules relative to TXA

| Ki (read-out: Inhibition constant (Ki), TXA affinity molecules, human plasmin 42.5 nM, listed as PAMAM 8-TXA) [nM] | rp: relative potency = Ki^TXA/Ki^multi (plasmin) | rp/n: relative potency/number of TXA units (plasmin, relative to TXA per TXA unit) | Structure (SMILES) |
| --- | --- | --- | --- |
| 2470 | 8548 | 1069 | NC[C@H]1CC[C@H](C(=O)NCCNC(=O)CCN(CCNC(=O)CCN(CCC(=O)NCCN(CCC(=O)NCCNC(=O)[C@H]2CC[C@H](CN)CC2)CCC(=O)NCCNC(=O)[C@H]2CC[C@H](CN)CC2)CCN(CCC(=O)NCCN(CCC(=O)NCCNC(=O)[C@H]2CC[C@H](CN)CC2)CCC(=O)NCCNC(=O)[C@H]2CC[C@H](CN)CC2)CCC(=O)NCCN(CCC(=O)NCCNC(=O)[C@H]2CC[C@H](CN)CC2)CCC(=O)NCCNC(=O)[C@H]2CC[C@H](CN)CC2)CCC(=O)NCCNC(=O)[C@H]2CC[C@H](CN)CC2)CC1 |
| – | 5936 | – | NC[C@H]1CC[C@H](C(=O)NCCNC(=O)CCN(CCNC(=O)CCN(CCNC(=O)CCN(CCC(=O)NCCN(CCC(=O)NCCN(CCC(=O)NCCNC(=O)[C@H]2CC[C@H](CN)CC2)CCC(=O)NCCNC(=O)[C@H]2CC[C@H](CN)CC2)CCC(=O)NCCN(CCC(=O)NCCNC(=O)[C@H]2CC[C@H](CN)CC2)CCC(=O)NCCNC(=O)[C@H]2CC[C@H](CN)CC2)CCN(CCC(=O)NCCN(CCC(=O)NCCN(CCC(=O)NCCNC(=O)[C@H]2CC[C@H](CN)CC2)CCC(=O)NCCNC(=O)[C@H]2CC[C@H](CN)CC2)CCC(=O)NCCN(CCC(=O)NCCNC(=O)[C@H]2CC[C@H](CN)CC2)CCC(=O)NCCNC(=O)[C@H]2CC[C@H](CN)CC2)CCC(=O)NCCN(CCC(=O)NCCN(CCC(=O)NCCNC(=O)[C@H]2CC[C@H](CN)CC2)CCC(=O)NCCNC(=O)[C@H]2CC[C@H](CN)CC2)CCC(=O)NCCN(CCC(=O)NCCNC(=O)[C@H]2CC[C@H](CN)CC2)CCC(=O)NCCNC(=O)[C@H]2CC[C@H](CN)CC2)CCC(=O)NCCN(CCC(=O)NCCNC(=O)[C@H]2CC[C@H](CN)CC2)CCC(=O)NCCNC(=O)[C@H]2CC[C@H](CN)CC2)CCC(=O)NCCNC(=O)[C@H]2CC[C@H](CN)CC2)CC1 |
